{
  "source": "paper PMC9409043",
  "about": "“Serotonin 5-HT6 Receptor Ligands and Butyrylcholinesterase Inhibitors Displaying Antioxidant Activity—Design, Synthesis and Biological Evaluation of Multifunctional Agents against Alzheimer’s Disease” (International Journal of Molecular Sciences, 2022)",
  "origin": "cited, not measured here",
  "system": "brain concentrations of malondialdehyde",
  "conditions": "scopolamine and lipopolysaccharide models ref 46; cited from earlier work",
  "data": [
    {"smiles": "COc1cc2c(cc1OC)C(=O)C(CC1CCN(Cc3ccccc3)CC1)C2", "note": "(stereo not shown) [Donepezil]", "values": [
      {"measurement": "antioxidant activity in vivo", "result": "reducing the brain concentrations of malondialdehyde"}
    ]}
  ]
}
